PubChem BioAssay AID493246 – Drosophila RNAi Screening Center, 2011

Aim: 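Genome-wide search for dsRNAs that reduce cell number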 (primary screen)
Cell system: Drosophila Kc and S2R+ cells
Knock-down reagent: long dsRNA against Drosophila genes
Measurement: 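Raw, unnormalised count of remaining cells in each well; per-plate z-scores of cell number underlie the calls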
Scale: Kc cell number and S2R+ cell number: higher = more cells remaining
Hit rule: 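Active when the per-plate z-score of cell number is 3 or more in the direction of fewer cells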
The deposit covers about 21,000 reagents; below is a random part of those with a known target gene and a result. In the full data, 429 (2%) were called active. 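Values are raw and not normalised between plates; calls rest on per-plate z-scores that were not deposited.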 A number with no mark means an inactive call. A plus sign joins genes that one reagent is predicted to hit. Not stated in the record: the amount of reagent, the time to read-out.

gene knocked down | dsRNA | Kc cell number, rep 1 | Kc cell number, rep 2 | S2R+ cell number, rep 1 | S2R+ cell number, rep 2
CG42249 | DRSC19383 | 1.64e6 | 1.75e6 | 1.04e6 | 1.16e6
CG42249 | DRSC19826 | 1.87e6 | 1.72e6 | 1.14e6 | 1.27e6
Mfe2 | DRSC19869 | 6.43e5 | – | 9.24e5 | –
CG11811 | DRSC09862 | 1.23e6 | 1.40e6 | 1.19e6 | 1.28e6
stck | DRSC17070 | 1.55e6 | 1.65e6 | 1.23e6 | 1.32e6
Nct | DRSC16172 | 1.58e6 | 1.58e6 | 1.35e6 | 1.36e6
Fen1 | DRSC07415 | 1.61e6 | 1.61e6 | 1.17e6 | 1.28e6
CG14795 | DRSC18513 | 1.52e6 | 1.57e6 | 9.12e5 | 9.97e5
Hsepi | DRSC04986 | 1.68e6 | 1.82e6 | 1.36e6 | 1.57e6
kkv | DRSC12315 | 1.50e6 | 1.57e6 | 1.23e6 | 1.28e6
CG12974 | DRSC11684 | 1.51e6 | 1.62e6 | 1.18e6 | 1.36e6
CG42749 | DRSC18091 | 1.60e6 | 1.60e6 | 1.12e6 | 1.24e6
CG42749 | DRSC18092 | 1.53e6 | 1.57e6 | 1.14e6 | 1.23e6
CG7611 | DRSC11840 | 1.55e6 | 1.57e6 | 1.37e6 | 1.34e6
CG2794 | DRSC00534 | 1.51e6 | 1.56e6 | 1.06e6 | 1.30e6
CG9168 | DRSC08633 | 1.32e6 | 1.33e6 | 9.81e5 | 1.24e6
Vm26Ab | DRSC03473 | 1.52e6 | 1.55e6 | 1.11e6 | 1.26e6
Lsm11 | DRSC06238 | 1.77e6 | 1.72e6 | 1.36e6 | 1.52e6
CG12024 | DRSC08229 | 1.43e6 | 1.49e6 | 1.16e6 | 1.20e6
slv | DRSC07685 | 1.45e6 | 1.61e6 | 1.27e6 | 1.38e6
CG9674 | DRSC11088 | 1.51e6 | 1.55e6 | 1.21e6 | 1.23e6
CG9674 | DRSC11089 | 1.37e6 | 1.47e6 | 1.26e6 | 1.34e6
Vps16A | DRSC16422 | 1.82e6 | 1.81e6 | 1.16e6 | 1.34e6

Continued; the last 6 above are carried over.
gene knocked down | dsRNA | Kc cell number, rep 1 | Kc cell number, rep 2 | S2R+ cell number, rep 1 | S2R+ cell number, rep 2
Lsm11 | DRSC06238 | 1.77e6 | 1.72e6 | 1.36e6 | 1.52e6
CG12024 | DRSC08229 | 1.43e6 | 1.49e6 | 1.16e6 | 1.20e6
slv | DRSC07685 | 1.45e6 | 1.61e6 | 1.27e6 | 1.38e6
CG9674 | DRSC11088 | 1.51e6 | 1.55e6 | 1.21e6 | 1.23e6
CG9674 | DRSC11089 | 1.37e6 | 1.47e6 | 1.26e6 | 1.34e6
Vps16A | DRSC16422 | 1.82e6 | 1.81e6 | 1.16e6 | 1.34e6
CG9458 | DRSC16495 | 1.59e6 | 1.63e6 | 1.33e6 | 1.37e6
ItgaPS4 | DRSC06630 | 1.48e6 | 1.61e6 | 1.31e6 | 1.45e6
Pal1 | DRSC06106 | 1.45e6 | 1.50e6 | 1.09e6 | 1.13e6
PLCXD | DRSC02427 | 1.42e6 | 1.45e6 | 1.03e6 | 1.12e6
CG8852 | DRSC00719 | 1.51e6 | 1.41e6 | 1.12e6 | 1.26e6
CG13674 | DRSC10033 | 1.63e6 | 1.72e6 | 1.26e6 | 1.13e6
Prosalpha2 | DRSC16798 | 9.76e5 (active) | 1.05e6 | 6.39e5 | 7.48e5
CG31949 | DRSC00110 | 1.49e6 | 1.53e6 | 9.87e5 | 1.14e6
CG11898 | DRSC14432 | 1.49e6 | 1.48e6 | 1.04e6 | 1.13e6
CG7126 | DRSC16201 | 1.32e6 | 1.31e6 | 1.04e6 | 1.12e6
asrij | DRSC04175 | 1.50e6 | 1.57e6 | 1.29e6 | 1.43e6
Rnp4F | DRSC18706 | 5.53e5 | – | 8.66e5 | –
Ctu1 | DRSC07069 | 1.59e6 | 1.57e6 | 1.35e6 | 1.44e6
CG11034 | DRSC02121 | 1.54e6 | 1.46e6 | 1.24e6 | 1.38e6
CG11034 | DRSC02122 | 1.59e6 | 1.51e6 | 1.23e6 | 1.41e6
CG31211 | DRSC14953 | 1.40e6 | 1.57e6 | 1.04e6 | 1.21e6
CG31211 | DRSC15344 | 1.80e6 | 1.97e6 | 1.40e6 | 1.54e6
CG4408 | DRSC15574 | 1.56e6 | 1.78e6 | 1.23e6 | 1.35e6
CG3702 | DRSC00628 | 1.29e6 | 1.33e6 | 1.07e6 | 1.24e6
Meics | DRSC11413 | 1.74e6 | 1.68e6 | 1.38e6 | 1.46e6
Tsp42Ed | DRSC05940 | 1.71e6 | 1.72e6 | 1.34e6 | 1.51e6
CG17974 | DRSC04299 | 1.65e6 | 1.71e6 | 1.22e6 | 2.74e5
CG14518 | DRSC14870 | 1.60e6 | 1.60e6 | 1.06e6 | 1.21e6
bor | DRSC16915 | 1.43e6 | 1.42e6 | 1.10e6 | 1.27e6
RecQ4 | DRSC11265 | 1.68e6 | 1.68e6 | 1.03e6 | 1.08e6
CG13332 | DRSC06367 | 1.88e6 | 1.90e6 | 1.23e6 | 1.44e6
CG42809 + CG42810 | DRSC02532 | 1.55e6 | 1.71e6 | 1.19e6 | 1.30e6
CG42809 + CG42810 | DRSC02533 | 1.50e6 | 1.59e6 | 1.17e6 | 1.24e6
EloC | DRSC07423 | 1.34e6 | 1.47e6 | 1.11e6 | 1.25e6
GstE9 | DRSC06679 | 1.46e6 | 1.55e6 | 1.14e6 | 1.28e6
CG8993 | DRSC08616 | 1.49e6 | 1.37e6 | 1.02e6 | 1.17e6
CG17782 | DRSC15267 | 1.51e6 | 1.52e6 | 1.00e6 | 1.05e6
CG14247 | DRSC14742 | 1.53e6 | 1.54e6 | 1.04e6 | 1.15e6
Gr59b | DRSC04179 | 1.73e6 | 1.81e6 | 1.45e6 | 1.57e6
Lcp65Af | DRSC11213 | 1.54e6 | 1.57e6 | 1.22e6 | 1.26e6
Cp15 | DRSC11118 | 1.48e6 | 1.49e6 | 1.09e6 | 1.20e6
